Results published in PubChem BioAssay AID200 (DTP/NCI, 2004).
The list does not hold the whole screen: it is rich in T/C values a quarter to a half above the control, in often repeated tests (any T/C) and in doses without a T/C. Other doses and runs of a compound stand elsewhere. T/C gives the treated animals as a percentage of the vehicle group. Some entries give survivors of the animals treated and no T/C: the source files T/C as zero there, which appears to mark a toxic dose or a test without result, not a measured value. Some doses without a T/C left all or most animals alive at the check, yet need not have been tolerated: survival well below the control is almost never listed, so the zero probably covers shortened survival too. Survivors were counted at the toxicity check, usually on the fifth day, unless a day is given; later deaths do not show. Schedule codes are those of the source, taken here to give the interval after Q, in days (D) or hours (H), and the number of doses after X. Some doses were run more than once; the results are listed from low to high. Where survival is the endpoint, this PubChem deposit counts one and a half times the control or more as active, and values a quarter to a half above the control carry no call in these data; other NCI protocols may use other cut-offs. Some T/C values are followed by the survivors on the day toxicity was checked, most often the fifth; where none is given, no animal had died by that day. Additions like (4×) say how often a value occurs here.

Tested on: B6C3F1 mice, B16 melanoma ip, median survival T/C
Experiment: NCI In Vivo Anticancer Drug Screen. Data for tumor model B16 Melanoma (intraperitoneal) in B6C3F1 mice
Conditions: T/C endpoint: median survival time, higher T/C = longer survival
Outline: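 Values are T/C ratios: the measurement in treated animals divided by that in vehicle-treated controls, using survival or tumor size in mice carrying transplantable tumors.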

[1] = dose: 100.0 mg/kg/injection, schedule: Q01DX009 (ip), vehicle: Klucel (hydroxypropylcellulose) (HPC)
[2] = dose: 200.0 mg/kg/injection, schedule: Q01DX009 (ip), vehicle: Klucel (hydroxypropylcellulose) (HPC)
[3] = dose: 200.0 mg/kg/injection, schedule: Q01DX009 (ip), vehicle: saline with Tween-80
[4] = dose: 400.0 mg/kg/injection, schedule: Q01DX009 (ip), vehicle: saline with Tween-80
[5] = dose: 200.0 mg/kg/injection, schedule: Q01DX009 (ip), vehicle: distilled water + Tween-80
[6] = dose: 0.5 mg/kg/injection, schedule: Q01DX009 (ip), vehicle: Klucel (hydroxypropylcellulose) (HPC)
[7] = dose: 2.0 mg/kg/injection, schedule: Q01DX009 (ip), vehicle: saline
[8] = dose: 4.0 mg/kg/injection, schedule: Q01DX009 (ip), vehicle: saline
[9] = dose: 8.0 mg/kg/injection, schedule: Q01DX009 (ip), vehicle: saline
[10] = dose: 400.0 mg/kg/injection, schedule: Q01DX009 (ip), vehicle: saline

Compound: Cc1c2ccncc2c(C)c2c1[nH]c1ccccc12
- T/C (dose: 5.0 mg/kg/injection, schedule: Q01DX009 (ip), vehicle: distilled water + Tween-80): 132 % of control
- T/C (dose: 10.0 mg/kg/injection, schedule: Q01DX009 (ip), vehicle: water): 127 % of control
- survivor count (dose: 20.0 mg/kg/injection, schedule: Q01DX009 (ip), vehicle: water): 10 of 10
- survivor count (dose: 40.0 mg/kg/injection, schedule: Q01DX009 (ip), vehicle: distilled water + Tween-80): 10 of 10
- survivor count (dose: 40.0 mg/kg/injection, schedule: Q01DX009 (ip), vehicle: water): 10 of 10

Compound: CCN(C)N=Nc1ccc(C(N)=O)cc1
- T/C [1]: 142 % of control
- survivor count [1]: 10 of 10
- survivor count [2]: 10 of 10

Compound: COc1nc(C(Cl)(Cl)Cl)c(Cl)c(OC)c1Cl
- survivor count [1]: 9 of 10
- survivor count [2]: 10 of 10
- survivor count (dose: 400.0 mg/kg/injection, schedule: Q01DX009 (ip), vehicle: Klucel (hydroxypropylcellulose) (HPC)): 4 of 10

Compound: O=C(NC(CO)C(=O)O)OCc1ccccc1 (stereo unspecified)
- survivor count [3]: 10 of 10
- survivor count [4]: 10 of 10

Compound: C=C(C)[C@@H]1CC[C@]2(C(=O)OC)CC[C@]3(C)[C@H](CC[C@@H]4[C@@]5(C)CC[C@H](O)C(C)(C)[C@@H]5CC[C@]43C)[C@@H]12
- survivor count [1]: 10 of 10
- survivor count [2]: 10 of 10

Compound: CC(=O)O[C@@H]1C(=O)C=C(C)[C@@H]2[C@@H](OC(=O)C=C(C)C)[C@H]3OC(=O)C[C@H]4[C@@H](C)[C@@H](O)[C@]5(O)OC[C@]34[C@H]5[C@@]12C
- T/C (dose: 0.5 mg/kg/injection, schedule: Q01DX009 (ip), vehicle: distilled water + Tween-80): 127 % of control
- T/C (dose: 1.0 mg/kg/injection, schedule: Q01DX009 (ip), vehicle: distilled water + Tween-80): 137 % of control
- T/C (dose: 2.0 mg/kg/injection, schedule: Q01DX009 (ip), vehicle: distilled water + Tween-80): 145 % of control [9 of 10 alive]
- T/C (dose: 4.0 mg/kg/injection, schedule: Q01DX005 (ip), vehicle: distilled water + Tween-80): 137 % of control [9 of 10 alive]

Compound: COC1=C(OC)C(=O)C(SC/C=C(\C)CCCC(C)CCCC(C)CCCC(C)C)=CC1=O (stereo unspecified)
- T/C (dose: 100.0 mg/kg/injection, schedule: Q01DX009 (ip), vehicle: saline with Tween-80): 130 % of control
- survivor count [3]: 10 of 10

Compound: CNC(=O)OCc1c(COC(=O)NC)c(-c2ccc(Cl)c(Cl)c2)n2c1Cc1ccccc1C2
- T/C (dose: 6.25 mg/kg/injection, schedule: Q01DX009 (ip), vehicle: distilled water + Tween-80): 136 % of control
- T/C (dose: 12.5 mg/kg/injection, schedule: Q01DX009 (ip), vehicle: distilled water + Tween-80): 135 % of control
- T/C (dose: 25.0 mg/kg/injection, schedule: Q01DX009 (ip), vehicle: distilled water + Tween-80): 142 % of control
- survivor count [5]: 9 of 10
- survivor count (dose: 400.0 mg/kg/injection, schedule: Q01DX009 (ip), vehicle: distilled water + Tween-80): 10 of 10

Compound: O=C(O)C1C2CC3C(C2)C31.[Ag] (stereo unspecified)
- survivor count (dose: 50.0 mg/kg/injection, schedule: Q01DX009 (ip), vehicle: Klucel (hydroxypropylcellulose) (HPC)): 2 of 10

Compound: Nc1cc(Cl)c2[nH]cnc2n1
- survivor count [5]: 8 of 9

Compound: C[CH2][Sn]([Cl])([CH2]C)[c]1cc[c]([Sn]([Cl])([CH2]C)[CH2]C)cc1
- T/C (dose: 0.06 mg/kg/injection, schedule: Q01DX009 (ip), vehicle: Klucel (hydroxypropylcellulose) (HPC)): 106, 107 [9 of 10 alive], 108, 117 % of control
- T/C (dose: 0.12 mg/kg/injection, schedule: Q01DX009 (ip), vehicle: Klucel (hydroxypropylcellulose) (HPC)): 102 [9 of 10 alive], 111, 113, 116 % of control
- T/C (dose: 0.25 mg/kg/injection, schedule: Q01DX009 (ip), vehicle: Klucel (hydroxypropylcellulose) (HPC)): 104, 119, 126, 131 % of control
- T/C [6]: 109 % of control
- survivor count [6]: 4 of 10, 7 of 10, 8 of 10
- survivor count (dose: 1.0 mg/kg/injection, schedule: Q01DX009 (ip), vehicle: Klucel (hydroxypropylcellulose) (HPC)): 0 of 10, 1 of 10, 2 of 10, 5 of 10

Compound: N=c1c(C(=O)OCc2ccccc2)ncc(CCl)n1O
- survivor count [3]: 10 of 10
- survivor count [4]: 9 of 10

Compound: Cn1c(-c2ccc(/C=N\N3CCN(/N=C/c4ccc(-c5c[n+]6ccsc6n5C)cc4)CC3)cc2)c[n+]2ccsc12
- survivor count (dose: 12.0 mg/kg/injection, schedule: Q01DX009 (ip), vehicle: saline with Tween-80): 0 of 10

Compound: CC1=C[C@@]23[C@H](C=C(C(=O)O)[C@@H]2COC(=O)[C@]32CO2)[C@@H]1C
- survivor count [7]: 4 of 10
- survivor count [8]: 0 of 10
- survivor count [9]: 0 of 10
- survivor count (dose: 16.0 mg/kg/injection, schedule: Q01DX009 (ip), vehicle: saline): 0 of 10

Compound: c1ccc([C@H]2CN3CCSC3=N2)cc1
- T/C (dose: 0.5 mg/kg/injection, schedule: Q01DX009 (ip), vehicle: saline): 96, 99, 101, 104 (2×), 129 % of control
- T/C (dose: 1.0 mg/kg/injection, schedule: Q01DX009 (ip), vehicle: saline): 93, 101, 102, 105, 113 % of control (2×)
- T/C [7]: 95 [9 of 10 alive], 96 [9 of 10 alive], 97, 99 (2×), 107 % of control [9 of 10 alive]
- T/C [8]: 93, 98 (3×), 107, 125 % of control
- T/C [9]: 98, 101, 104 (3×), 119 % of control [9 of 10 alive]

Compound: CC1(C)N=C(N)N=C(N)N1c1ccc(CCCCc2ccc(S(=O)(=O)F)cc2Cl)c(Cl)c1
- T/C (dose: 3.12 mg/kg/injection, schedule: Q01DX009 (ip), vehicle: saline with Tween-80): 126 % of control
- T/C (dose: 6.25 mg/kg/injection, schedule: Q01DX009 (ip), vehicle: saline with Tween-80): 133 % of control
- T/C (dose: 12.5 mg/kg/injection, schedule: Q01DX009 (ip), vehicle: saline with Tween-80): 142 % of control
- survivor count (dose: 25.0 mg/kg/injection, schedule: Q01DX009 (ip), vehicle: other): 9 of 10
- survivor count (dose: 50.0 mg/kg/injection, schedule: Q01DX009 (ip), vehicle: other): 2 of 10
- T/C (dose: 50.0 mg/kg/injection, schedule: Q01DX009 (ip), vehicle: saline with Tween-80): 131 % of control

Compound: NC1=NC(=O)N2CC12 (stereo unspecified)
- survivor count (dose: 200.0 mg/kg/injection, schedule: Q01DX009 (ip), vehicle: saline): 9 of 10
- survivor count [10]: 0 of 10

Compound: N=c1nc2n(cc1F)[C@@H]1O[C@H](CO)[C@@H](O)[C@@H]1O2
- T/C [10]: 131 % of control
- survivor count (dose: 800.0 mg/kg/injection, schedule: Q01DX009 (ip), vehicle: Klucel (hydroxypropylcellulose) (HPC)): 9 of 10
- survivor count (dose: 800.0 mg/kg/injection, schedule: Q01DX009 (ip), vehicle: saline): 9 of 10 and 10 of 10

Compound: CC[C@@H](C)[C@H]([C@H](CC(=O)N1CCC[C@@H]1[C@@H](OC)[C@H](C)C(=O)N[C@H](Cc1ccccc1)c1nccs1)OC)N(C)C(=O)[C@H](NC(=O)[C@@H](C(C)C)N(C)C)C(C)C
- T/C (dose: 1.44 micrograms/kg/injection, schedule: Q01DX009 (ip), vehicle: saline + alcohol): 142 % of control

Compound: CC(/C=C/c1ccccc1)=Nc1ccccc1
- survivor count [4]: 9 of 10

Compound: COC1=C(C)C(=O)C2=C(C1=O)C(CO)N1C(C#N)C3CC4C(C1C2N1CCOC41)N3C (stereo unspecified)
- T/C (dose: 0.25 mg/kg/injection, schedule: Q01DX009 (ip), vehicle: saline + alcohol): 128 % of control
- T/C (dose: 1.0 mg/kg/injection, schedule: Q01DX009 (ip), vehicle: saline + alcohol): 134 % of control
- survivor count (dose: 2.0 mg/kg/injection, schedule: Q01DX009 (ip), vehicle: acid diluted with saline): 10 of 10
- survivor count (dose: 2.0 mg/kg/injection, schedule: Q01DX009 (ip), vehicle: saline + alcohol): 7 of 10, 8 of 10, 9 of 10
- survivor count (dose: 4.0 mg/kg/injection, schedule: Q01DX009 (ip), vehicle: acid diluted with saline): 1 of 10
- survivor count (dose: 8.0 mg/kg/injection, schedule: Q01DX009 (ip), vehicle: acid diluted with saline): 0 of 10

Compound: [Cl][Pt+2][Cl].[NH-]c1ccc(C(=O)c2ccccc2)cc1[NH-]
- T/C (dose: 160.0 mg/kg/injection, schedule: Q01DX009 (ip), vehicle: saline with Tween-80): 127 % of control [9 of 10 alive]
